A short description of the assay: qHTS Assay for Lipid Storage Modulators in Drosophila S3 Cells.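 On cell number change: cells counted by Cell Tracker Red CMTPX staining in the red channel.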 The following applies: BODIPY lipid droplet fluorescence, 18-24 h; for cell number change: measured here: cell count max response, cells fed with added oleic acid. An outline of the steps:
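Drosophila S3 cells got compounds at several concentrations plus oleic acid (400 uM solution). Laser-scanning cytometry with 488 nm excitation read lipid droplets at 500-530 nm and cells at 575-640 nm. Percent activity was relative to 20 uM Triacsin C.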
On the technique in general: Quantitative high-throughput screening tests each substance at several concentrations.

Setting [1] is: measured here: lipid fluorescence (Fed channel) AC50, cells fed with added oleic acid.
The mark [2] stands for this setting: measured here: cell number channel AC50, cells fed with added oleic acid.

This is one part of the list. Shown are side measurements of this screen, not its main read-out; they come without a call. Compounds called inactive in the main read-out are mostly missing here. Words in brackets tell the shape of the fitted curve; partial curves, single points and poor fits give uncertain potencies.

Broadly, the AC50 is the concentration at which the activity in the assay is half-maximal. Higher therefore signals weaker potency. As to `O=C(c1ccc(S(=O)(=O)c2ccccc2Cl)c([N+](=O)[O-])c1)N1CCCCCC1`, the cell number change is -15.5%. Besides, the AC50 under setting [1] was 20.6 µM [falling, single point]. In the case of `Cc1cccn2c(=O)c(C=NCCO)c(NCc3ccco3)nc12`, the cell number change is -16.8%. Also, the AC50 under setting [2] was 0.259 µM [rising, partial curve, poor fit]. Further, the AC50 under setting [1] is 0.146 µM [rising, full curve, poor fit]. In the case of `COc1ccc(CCC(=O)Nc2cccc(Cl)c2)cc1`, the cell number change is 17.4%. Take `CCOc1cc(-c2nc(C)c(C(C)=O)n2O)ccc1OCC(=O)Nc1cccc(C)c1`: the cell number change turned out to be 6.92%. As to `Cc1ccc(S(=O)(=O)N2CCN(S(=O)(=O)c3ccc(C)cc3)C2c2ccccc2)cc1`, the cell number change worked out at 10.5%. Take `Cn1cnc(C(=O)N2CCN(c3ccccc3)CC2)c1C(=O)N1CCN(c2ccccc2)CC1`: the cell number change is -7.7%. Further, under setting [1], the concentration at half-maximal activity (AC50) is 0.58 µM [rising, single point]. With `Cc1ccc(S(=O)(=O)N(C)C)cc1NC(=O)CCc1c[nH]c2ccccc12`, the cell number change was 23.6%. On to `O=C(COC(=O)c1cccc(S(=O)(=O)N2CCOCC2)c1)Nc1ncc(Cl)cc1Cl`, for which the cell number change is -11.8%. Moreover, the AC50 under setting [1] is 14.6 µM [rising, single point]. With `O=C(NN1CCOCC1)c1cccc(COc2cccc(Br)c2)c1`, the cell number change stood at 2.11%. Besides, under setting [1], the AC50 was 4.61 µM [rising, partial curve, poor fit]. With `Cc1cc(C(=O)OCC(=O)Nc2cc(S(=O)(=O)N3CCOCC3)ccc2Cl)c(C)o1`, the cell number change was -7.37%. As for `c1ccc(CNc2ncnc3sccc23)cc1`, under setting [1], the AC50 was 11.6 µM [falling, partial curve, poor fit]. For the molecule `NS(=O)(=O)c1ccc(NC(=S)NC(=O)c2ccc3c(c2)OCO3)cc1`, the cell number change was -4.4%.

`CC(=O)Nc1ccc(-c2nnc(SCc3c(C)cc(C)cc3C)n2C)cc1`: the cell number change is -112%. Also, under setting [2], the AC50 was 2.06 µM [falling, full curve]. Moreover, under setting [1], the AC50 was 2.06 µM [falling, full curve]. On to `CC(=O)Nc1ccc(NC(=O)COC(=O)/C(=C/c2ccccc2)n2nnnc2C)cc1`, for which the cell number change was -50.1%. Besides, the AC50 under setting [2] is 13 µM [falling, partial curve]. The concentration at half-maximal activity (AC50) under setting [1] is 14.6 µM [falling, partial curve]. On to `COc1cccc(-c2nnc(NC(=O)c3ccc(S(=O)(=O)N(CC(C)C)CC(C)C)cc3)o2)c1`, for which the cell number change was found to be 5.36%. The concentration at half-maximal activity (AC50) under setting [2] was 0.00461 µM [falling, full curve, poor fit]. Turning to `COc1cc(C)c(NC(c2ccccc2)c2ccccc2)cc1OC`, the cell number change amounted to 23%. Further, the AC50 under setting [1] is 6.51 µM [rising, single point]. For the molecule `COc1cccc(-c2nnc(Nc3nc4c(F)cccc4s3)o2)c1`, the cell number change is -11%. Also, under setting [1], the AC50 was 14.6 µM [falling, partial curve, poor fit].

As for `CCOc1ccc(NS(=O)(=O)c2ccc(-c3cnc(C4CC4)o3)cc2)cc1`, the cell number change is -16.2%. For the molecule `CC(=O)Oc1cc2c(cc1Cl)C1(CC(c3ccccc3Cl)O2)CC(C)(C)NC(=S)N1` (stereo not drawn), the cell number change worked out at 36.3%. Under setting [2], the AC50 is 29.1 µM [rising, single point]. Further, the half-maximal activity concentration (AC50) under setting [1] was 29.1 µM [rising, single point]. On to `COc1ccc(CCN2C(=O)C(Oc3ccccc3C)C2c2ccc3c(c2)OCO3)cc1` (stereo not drawn), for which the cell number change is -1.02%. Under setting [1], the AC50 was 0.651 µM [rising, full curve, poor fit]. Consider `CC1=CC(C)C2(CO)COC(c3ccc(O)cc3)C1C2C` (stereo not drawn), for which the cell number change was -15.6%. Moreover, under setting [1], the half-maximal activity concentration (AC50) is 0.184 µM [falling, full curve]. Take `O=C(N/N=C/c1cccc(OC(=O)c2cccc(Br)c2)c1)c1ccncc1`: the concentration at half-maximal activity (AC50) runs as follows: under setting [2], 0.164 µM [rising, full curve, poor fit]; under setting [1], 29.1 µM [falling, partial curve, poor fit]. For the molecule `CCCCCC1CCC(C(=O)NNC(=S)NCC)CC1` (stereo not drawn), the cell number change was -44.7%. The AC50 under setting [2] is 25.9 µM [falling, single point].

On to `Cc1ccc(S(=O)(=O)N2CCCC(C)C2)cc1` (stereo not drawn), for which the cell number change worked out at 11.4%. Besides, the AC50 under setting [1] is 1.84 µM [rising, partial curve, poor fit].

Consider `C=CCn1c(=S)[nH]c2cc(-c3ccccc3)sc2c1=O`, for which the cell number change was 1.32%.

For `CC1=C(C(=O)Nc2ccccn2)C(c2ccccc2Cl)NC(=S)N1` (stereo not drawn), the cell number change amounted to 24.5%. Further, under setting [1], the half-maximal activity concentration (AC50) was 29.1 µM [rising, single point]. On to `Cc1cc(=O)oc(C)c1C(=O)N1CCN(Cc2ccc3c(c2)OCO3)CC1`, for which the cell number change stood at 4.74%. As for `Nc1cc(S(=O)(=O)N2CCCCC2)ccc1Oc1ccc(Cl)cc1`, the cell number change is 61.7%. Moreover, the concentration at half-maximal activity (AC50) under setting [2] was 5.8 µM [rising, full curve]. On to `C1=C(c2ccccc2)N2CCN=C2S1`, for which the cell number change is 11.2%. Further, the concentration at half-maximal activity (AC50) under setting [1] is 2.91 µM [falling, single point]. With `Cc1cc(C(=O)NNC(=O)c2nn(C)c(=O)c3ccccc23)c(C)o1`, the cell number change worked out at 39.5%. Moreover, the half-maximal activity concentration (AC50) under setting [2] is 1.64 µM [rising, full curve]. Take `COc1ccc(CC(=O)NNC(=S)Nc2ccccc2)cc1Cl`: the cell number change is -62.3%. Moreover, the AC50 under setting [2] was 32.6 µM [falling, partial curve]. In addition, under setting [1], the AC50 was 32.6 µM [falling, single point]. Consider `COc1cccc(CN(C)C(=O)c2cc(COc3ccc4ncccc4c3)on2)c1`, for which the cell number change is -43.6%. In addition, the AC50 under setting [2] is 18.4 µM [falling, single point]. Regarding `COc1ccccc1-c1cc(-c2ccccc2)nc(=O)[nH]1`, the cell number change is 37.5%. Also, under setting [2], the concentration at half-maximal activity (AC50) was 13 µM [rising, single point]. Besides, the AC50 under setting [1] is 0.58 µM [rising, single point]. With `COC(=O)C1=C2SC(C)C(=O)N2C(N)=C(C#N)C1c1ccc(OC)c(OC)c1` (stereo not drawn), the AC50 under setting [2] is 0.82 µM [rising, single point]. As to `O=C1[C@H]2[C@@H](/C=C/c3ccccc3)N3C(=O)CN(Cc4ccccn4)C(=O)[C@@]3(Cc3ccccc3)[C@H]2C(=O)N1c1ccccc1`, the cell number change is 22.5%. Also, the concentration at half-maximal activity (AC50) under setting [2] was 6.51 µM [rising, partial curve]. `OC(COC(c1ccc(Cl)cc1)c1ccc(Cl)cc1)CN1CCN(c2ccccn2)CC1` (stereo not drawn): the cell number change was -48.4%. Under setting [2], the AC50 is 29.1 µM [falling, single point]. In addition, the concentration at half-maximal activity (AC50) under setting [1] is 18.4 µM [falling, single point]. `Cc1ccc(Cl)cc1NC(=O)c1ccccn1`: the cell number change is -44%. Further, under setting [2], the concentration at half-maximal activity (AC50) is 23.1 µM [falling, single point]. For `CCOc1ccc(NC(=S)Nc2ccc(Br)cc2Cl)cc1`, the cell number change was found to be 31.9%. In addition, under setting [2], the AC50 is 12.6 µM [rising, single point]. Further, the half-maximal activity concentration (AC50) under setting [1] is 12.6 µM [rising, single point].

For the origin of these results see PubChem BioAssay AID2685 (National Center for Advancing Translational Sciences (NCATS), 2010).
